Data on one molecule can be found in patent US20070066803A1.

Assay [1] has as its target plakoglobin. The assay is described as follows: co-immunoprecipitation with anti-Myc 9E10 or anti-plakoglobin PG5.1, Western blot.
For assay [2], the target named is plakoglobin. The assay is described as follows: co-immunoprecipitation from cell lysates (MDCK-Tetoff-hECRep1a -Tet), Western blot.

No constants are given. Whether binding was seen depends on the method and setting. Binding seen in cells or lysates may run through a third protein. Binding can be weak; no strength is given. Tags and fused reporters may be left off the sequences shown.

B1: Myc-tagged full-length human hECRep1a (protein, not shown: small tags and cut ends)
chain: MEAFPWAPRSPRRGRAPPPMALVPSARYVSAPGPAHPQPFSSWNDYLGLATLITKAVDGEPRFGCARGGNGGGGSPPSSSSSSCCSPHTGAGPGALGPALGPPDYDEDDDDDSDEPGSRGRYLGSALELRALELCAGPAEAGLLEERFAELSPFAGRAAAVLLGCAPAAAAAATTTSEATPREERAPAWAAEPRLHAASGAAAARLLKPELQVCVFCRNNKEAMALYTTHILKGPDGRVLCPVLRRYTCPLCGASGDNAHTIKYCPLSKVPPPPARPPPRSARDGPPGKKLR
As for B1, the binding result with plakoglobin [1] and in the assay with plakoglobin [2] was “binds” each time.
